This is an account of results in paper PMC2788698.

In this test the target is T1, HA-tagged STN-1 (syntrophin) (C. elegans) (UniProt Q93646).
T1 sequence: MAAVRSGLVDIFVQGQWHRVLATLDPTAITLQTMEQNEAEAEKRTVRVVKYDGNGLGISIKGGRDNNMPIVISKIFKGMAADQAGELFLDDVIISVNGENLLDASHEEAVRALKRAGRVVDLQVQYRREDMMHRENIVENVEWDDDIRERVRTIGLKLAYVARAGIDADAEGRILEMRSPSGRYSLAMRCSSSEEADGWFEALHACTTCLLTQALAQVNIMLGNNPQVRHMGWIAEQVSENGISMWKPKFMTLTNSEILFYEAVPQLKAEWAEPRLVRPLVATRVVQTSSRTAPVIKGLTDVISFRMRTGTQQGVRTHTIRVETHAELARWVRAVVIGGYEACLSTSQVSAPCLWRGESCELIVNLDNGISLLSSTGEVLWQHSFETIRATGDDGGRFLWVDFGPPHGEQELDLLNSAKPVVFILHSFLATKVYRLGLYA
Put plainly: co-IP; epitope-tagged (FLAG, HA) proteins transiently transfected in HEK293 cells; immunoprecipitation and Western blot with FLAG or HA antibody, both directions. In general terms: Immunoblotting shows a protein as a band on a membrane.

Results are given in words; binding and its absence hold for the method and conditions named. In cells and extracts the contact can be indirect. Tags and fused reporters may be left off the sequences shown.

For the substance “FLAG-tagged ISLO-1Δ4C(54-354), lacking the consensus type I PDZ interaction sequence (C. elegans) (domain or fragment)”, the binding entry is recorded as “no binding”.
